Assay results published in article PMC12270673.

Test system: p65 (NF-κB subunit) + BRD4
Assay: EMSA with antibody interference (nuclear extract)
Conditions: IL-1β 5 U/ml 30 min, shifted band diminished by anti-p65 or anti-BRD4 (antibodies used separately); 4 μg nuclear lysate, 50 fmol probe; antibody preincubation 20 min at 4 °C, then probe 20 min; 4.5% native gel with 50 mM Tris pH 7.5, 0.38 M glycine, 2 mM EDTA, 0.5% TBE; protein in an extract

Q: Does “AGTTGAGGGGACTTTCCCAGGC (double strand) [NF-κB consensus oligonucleotide (LI-COR)]” bind?
A: Result: binds

Construct, isoform or probe ends are uncertain for at least one entry. Results from cells or extracts need not show a direct contact.
